Measurements reported in PubChem BioAssay AID1053208 (Peter MacCallum Cancer Centre, 2014).

- Assay: 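Genes whose silencing cuts survival of bone tumour cells only with doxorubicin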 (primary screen)
- System: mouse osteosarcoma cells, early-passage culture from an engineered mouse model of fibroblastic bone tumour
- Reagents: siRNA pool against mouse genes, 40 nM
- Time to read-out: about 120 h (48 h before drug, then 72 h with drug)
- Treatment: doxorubicin 100 nM for 72 h, roughly 30-40% inhibitory dose
- Detection: 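Viability read as ATP luminescence after 72 h of 100 nM doxorubicin or none, duplicate wells averaged, scaled to non-targeting siRNA, then expressed as robust z-scores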
- Direction: viability z-score with doxorubicin: higher = more viable cells under doxorubicin; viability z-score without drug: higher = more viable cells with knock-down alone
- Active means: 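Called active if knock-down leaves viability unchanged without drug (z within -2 to 2) but lowers it with doxorubicin (z at or under -2)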
In all, the deposit lists about 17,000 reagents; this is a part drawn at random. 788 of all reagents (4.7%) count as active. 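Calls rest on z-score classes alone; an extra cut-off of viability at most 70% of control was not applied to them.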 A number with no mark means an inactive call. The numbers tell different reagents against one gene apart. Not all columns of the deposit are shown. No sequences are given here.

Gene	reagent	combined z-score class	viability z-score with doxorubicin	viability z-score without drug
Atf5	1	low cell count with doxorubicin only (active)	-2.02	-1.18
Rhov	1	high cell count with doxorubicin only	2.02	1.69
Sf3b4	1	low cell count with doxorubicin only (active)	-3.48	0
Hoxc5	1	no change with or without drug	-0.9	-0.84
H3c1	1	no change with or without drug	0.79	-0.17
Dnajc11	1	no change with or without drug	-0.56	0.17
Kir3dl2	1	no change with or without drug	-0.9	-0.17
Cidec	1	no change with or without drug	-0.45	-0.17
Ier5l	1	no change with or without drug	0.11	-0.51
Tspan33	1	no change with or without drug	0.9	-1.18
Slc30a5	1	no change with or without drug	0.22	-0.51
Or2aa1	1	no change with or without drug	0	-0.51
Rbbp8	1	no change with or without drug	-0.79	-0.84
Guca2b	1	no change with or without drug	0.67	-0.17
Slc25a17	1	no change with or without drug	-0.45	0.51
Slc25a17	2	no change with or without drug	0.45	-0.34
Acyp2	1	no change with or without drug	0.45	0.84
Cd82	1	no change with or without drug	-0.45	-0.51
Itga7	1	no change with or without drug	0.22	-0.51
Adck2	1	no change with or without drug	-0.11	1.18
Vsig1	1	low cell count with doxorubicin only (active)	-3.15	1.52
Cenpe	1	high cell count with doxorubicin only	2.81	0.51
Wfdc21	1	no change with or without drug	0.45	1.18
Prelid3b	1	no change with or without drug	-1.01	1.69
Cdc42ep4	1	no change with or without drug	-0.79	0.84
Cysltr1	1	no change with or without drug	0	-0.51
Sez6	1	no change with or without drug	1.8	0.51
Or1e26	1	no change with or without drug	0.34	-0.51
Atp1b4	1	no change with or without drug	0	-0.34
Pcdhgb1	1	low cell count with doxorubicin only (active)	-2.7	0.34
Stag2	1	no change with or without drug	-1.35	1.18
Krtap5-2	1	high cell count without drug only	1.35	3.2
Tmc2	1	low cell count with doxorubicin only (active)	-2.14	-1.18
Prkx	1	no change with or without drug	-0.22	-1.01
Ing4	1	no change with or without drug	-0.34	-0.17
DLC1	1	no change with or without drug	0	1.35
Dtx2	1	no change with or without drug	-0.45	0.51
Slfn10	1	no change with or without drug	-0.45	-0.84
Arhgap6	1	no change with or without drug	-1.35	-0.17
Efnb2	1	no change with or without drug	0.45	1.52
Hsd17b12	1	no change with or without drug	0.45	-0.51
BC061195	1	no change with or without drug	-1.12	1.85
Gjb6	1	no change with or without drug	0.9	0.17
Deptor	1	high cell count without drug only	0	2.7
Alox12	1	no change with or without drug	-0.45	0.67
Duoxa1	1	no change with or without drug	0.9	-0.34
Wdr48	1	no change with or without drug	0.67	0.51
Klra8	1	no change with or without drug	0	-0.51
Ncoa7	1	no change with or without drug	-0.45	0.84
Dpp9	1	no change with or without drug	-0.67	1.01
Cdkl4	1	no change with or without drug	1.01	0.51
Cyp2c39	1	no change with or without drug	0.9	1.85
Ubn1	1	high cell count with doxorubicin only	2.02	1.52
Oog2	1	no change with or without drug	0.34	0
Hjurp	1	no change with or without drug	0	-0.84
Erc1	1	no change with or without drug	-1.12	-0.51
Fam135a	1	no change with or without drug	0.34	0.17
Dmpk	1	no change with or without drug	1.57	0.51
Maoa	1	low cell count without drug only	0.45	-2.19
Vmn1r174	1	no change with or without drug	-0.45	0.17
Eno3	1	no change with or without drug	-0.45	-0.84
Ppp2r1a	1	no change with or without drug	0.9	-0.34
Trim47	1	no change with or without drug	0.9	-1.52

Entries listed so far whose gene name starts with C or c (7):
Gene	reagent	combined z-score class	viability z-score with doxorubicin	viability z-score without drug
Cidec	1	no change with or without drug	-0.45	-0.17
Cd82	1	no change with or without drug	-0.45	-0.51
Cenpe	1	high cell count with doxorubicin only	2.81	0.51
Cdc42ep4	1	no change with or without drug	-0.79	0.84
Cysltr1	1	no change with or without drug	0	-0.51
Cdkl4	1	no change with or without drug	1.01	0.51
Cyp2c39	1	no change with or without drug	0.9	1.85
